One test concerns the target BD-RBBP4 (mouse) (UniProt Q60972). Briefly: two-hybrid; AD prey in Y187 mated with BD bait in AH109; growth on -LW, -LWH with 5 mM 3-AT and -LWHA plates at 30°C for 3-5 days.
The target in another test is T1, MYC-MTL5 (mouse) (UniProt Q9WTJ6).
T1 sequence: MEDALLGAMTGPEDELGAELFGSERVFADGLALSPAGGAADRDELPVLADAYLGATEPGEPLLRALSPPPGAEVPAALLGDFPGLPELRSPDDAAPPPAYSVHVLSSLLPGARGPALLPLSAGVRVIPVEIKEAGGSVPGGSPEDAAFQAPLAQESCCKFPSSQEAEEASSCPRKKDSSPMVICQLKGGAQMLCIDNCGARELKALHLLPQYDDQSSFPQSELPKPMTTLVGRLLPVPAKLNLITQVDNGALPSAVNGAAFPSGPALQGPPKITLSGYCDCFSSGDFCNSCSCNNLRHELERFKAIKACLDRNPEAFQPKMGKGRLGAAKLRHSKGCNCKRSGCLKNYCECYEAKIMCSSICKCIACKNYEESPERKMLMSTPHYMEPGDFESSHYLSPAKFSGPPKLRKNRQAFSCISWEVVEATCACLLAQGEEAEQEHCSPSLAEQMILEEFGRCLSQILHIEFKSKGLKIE
Kind of test: co-IP; HEK293T co-transfected with MYC-tagged MTL5 and GFP-tagged partner; NP-40 buffer lysate, Myc-Tag magnetic beads, overnight at 4°C; Western blot.

Amino acid sequences for entries named in this document (tags omitted).
UniProt Q60972: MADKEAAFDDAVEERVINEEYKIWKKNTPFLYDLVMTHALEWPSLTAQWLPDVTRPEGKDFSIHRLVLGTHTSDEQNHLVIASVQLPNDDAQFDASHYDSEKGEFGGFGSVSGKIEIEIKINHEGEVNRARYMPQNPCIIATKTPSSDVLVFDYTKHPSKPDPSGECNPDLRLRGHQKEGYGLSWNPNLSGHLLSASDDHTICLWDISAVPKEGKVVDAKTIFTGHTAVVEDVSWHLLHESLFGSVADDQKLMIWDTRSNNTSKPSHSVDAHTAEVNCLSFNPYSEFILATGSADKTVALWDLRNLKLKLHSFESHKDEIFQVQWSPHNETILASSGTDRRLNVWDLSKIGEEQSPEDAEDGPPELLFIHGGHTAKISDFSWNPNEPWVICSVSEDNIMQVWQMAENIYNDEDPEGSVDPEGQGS

No constants are given. Whether binding was seen depends on the method and setting. For some assays here: Binding seen in cells or lysates may run through a third protein. Sequences can lack the tags named with a protein. Some binding calls cover weakened binding; strength is not graded here.

B1: AD-MTL5 (protein, UniProt Q9WTJ6-1 1-475)
chain: T1 sequence
Take B1: the binding result with BD-RBBP4 (mouse) is “binds”.

B2: GFP-LIN54 (protein, UniProt Q571G4 1-749)
chain: MEVVPAEVNSLLPDDIMDTAITLVDEDSIEAVIVSSPIPMETELEEIVNINSTGDSTATPISTEPITVYSNHTNQVAVNTTVSKADSNTTVKPAFPSGLQKLGAQTPVTISANQIILNKVSQTSDLKLGNQTLKPDGQKLILTTLGKSGSPIVLALPHSQLPQAQKVTAQAQPGDAKLPPQQIKVVTIGGRPEVKPVIGVSALTPGSQLINTTTQPSVLQTQQLKTVQIAKKPRTPTSGPVITKLIFAKPINSKAVTGQTTQASPPVVTGRVLSQSTPGTPSKTITISESGVIGSTLNSTTQTPNKIAISPLKSPNKTVKSAVQTITVGGMSTSQFKTIIPLATAPNVQQIQVPGSKFHYVRLVTATTASSSAQPVSQSPSVNTQPLQQAKPVVVNTTPVRMSVPFVQAQAVKQVVPKPINSTSQIVTTSQPQQRLIMPATPLPQIQPNLTNLPPGTVLAPAPGTGNVGYAVLPAQYVTQLQQSSYVSIASNSNFTGTSGIQTQARLPFNGIIPSESTSRPRKPCNCTKSLCLKLYCDCFANGEFCNNCNCTNCYNNLEHENERQKAIKACLDRNPEAFKPKIGKGKEGESDRRHSKGCNCKRSGCLKNYCECYEAKIMCSSICKCIGCKNFEESPERKTLMHLADAAEVRVQQQTAAKTKLSSQISDLLTRPTPALNSAGGKLPFTFVTKEVAEATCNCLLAQAEQADKKGKSKAAAERMILEEFGRCLMSVINSAGKAKSDPCAMHC
On to B2, for which, in the test with MYC-MTL5 (mouse), the binding entry was “no binding”.

For the origin of these results see publication PMC8386835.
